The results in this text go back to article PMC3904858.

Amino acid sequences for entries named in this document (tags omitted). Residues count along the entry.
UniProt O00206, residues 24-839: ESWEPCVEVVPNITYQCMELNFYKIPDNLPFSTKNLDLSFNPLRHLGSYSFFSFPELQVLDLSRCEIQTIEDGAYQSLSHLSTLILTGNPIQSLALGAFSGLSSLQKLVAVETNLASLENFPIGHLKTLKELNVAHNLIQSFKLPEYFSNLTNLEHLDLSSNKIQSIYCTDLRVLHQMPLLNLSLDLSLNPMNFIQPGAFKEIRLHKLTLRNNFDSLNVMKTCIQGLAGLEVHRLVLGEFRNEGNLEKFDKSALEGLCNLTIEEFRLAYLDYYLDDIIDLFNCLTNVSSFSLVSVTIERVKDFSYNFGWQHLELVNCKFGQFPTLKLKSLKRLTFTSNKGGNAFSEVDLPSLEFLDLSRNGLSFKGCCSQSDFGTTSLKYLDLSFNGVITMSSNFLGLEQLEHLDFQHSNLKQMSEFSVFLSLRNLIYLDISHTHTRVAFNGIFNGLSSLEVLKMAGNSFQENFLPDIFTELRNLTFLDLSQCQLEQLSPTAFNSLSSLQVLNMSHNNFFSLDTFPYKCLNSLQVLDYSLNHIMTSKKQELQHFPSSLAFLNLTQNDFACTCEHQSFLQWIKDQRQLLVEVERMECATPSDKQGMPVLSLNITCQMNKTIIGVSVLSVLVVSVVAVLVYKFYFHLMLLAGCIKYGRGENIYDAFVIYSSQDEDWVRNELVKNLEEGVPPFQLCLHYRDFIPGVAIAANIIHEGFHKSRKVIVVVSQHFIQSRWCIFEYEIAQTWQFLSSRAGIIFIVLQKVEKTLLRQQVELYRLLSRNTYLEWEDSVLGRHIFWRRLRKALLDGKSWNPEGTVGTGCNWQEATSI
UniProt P21333: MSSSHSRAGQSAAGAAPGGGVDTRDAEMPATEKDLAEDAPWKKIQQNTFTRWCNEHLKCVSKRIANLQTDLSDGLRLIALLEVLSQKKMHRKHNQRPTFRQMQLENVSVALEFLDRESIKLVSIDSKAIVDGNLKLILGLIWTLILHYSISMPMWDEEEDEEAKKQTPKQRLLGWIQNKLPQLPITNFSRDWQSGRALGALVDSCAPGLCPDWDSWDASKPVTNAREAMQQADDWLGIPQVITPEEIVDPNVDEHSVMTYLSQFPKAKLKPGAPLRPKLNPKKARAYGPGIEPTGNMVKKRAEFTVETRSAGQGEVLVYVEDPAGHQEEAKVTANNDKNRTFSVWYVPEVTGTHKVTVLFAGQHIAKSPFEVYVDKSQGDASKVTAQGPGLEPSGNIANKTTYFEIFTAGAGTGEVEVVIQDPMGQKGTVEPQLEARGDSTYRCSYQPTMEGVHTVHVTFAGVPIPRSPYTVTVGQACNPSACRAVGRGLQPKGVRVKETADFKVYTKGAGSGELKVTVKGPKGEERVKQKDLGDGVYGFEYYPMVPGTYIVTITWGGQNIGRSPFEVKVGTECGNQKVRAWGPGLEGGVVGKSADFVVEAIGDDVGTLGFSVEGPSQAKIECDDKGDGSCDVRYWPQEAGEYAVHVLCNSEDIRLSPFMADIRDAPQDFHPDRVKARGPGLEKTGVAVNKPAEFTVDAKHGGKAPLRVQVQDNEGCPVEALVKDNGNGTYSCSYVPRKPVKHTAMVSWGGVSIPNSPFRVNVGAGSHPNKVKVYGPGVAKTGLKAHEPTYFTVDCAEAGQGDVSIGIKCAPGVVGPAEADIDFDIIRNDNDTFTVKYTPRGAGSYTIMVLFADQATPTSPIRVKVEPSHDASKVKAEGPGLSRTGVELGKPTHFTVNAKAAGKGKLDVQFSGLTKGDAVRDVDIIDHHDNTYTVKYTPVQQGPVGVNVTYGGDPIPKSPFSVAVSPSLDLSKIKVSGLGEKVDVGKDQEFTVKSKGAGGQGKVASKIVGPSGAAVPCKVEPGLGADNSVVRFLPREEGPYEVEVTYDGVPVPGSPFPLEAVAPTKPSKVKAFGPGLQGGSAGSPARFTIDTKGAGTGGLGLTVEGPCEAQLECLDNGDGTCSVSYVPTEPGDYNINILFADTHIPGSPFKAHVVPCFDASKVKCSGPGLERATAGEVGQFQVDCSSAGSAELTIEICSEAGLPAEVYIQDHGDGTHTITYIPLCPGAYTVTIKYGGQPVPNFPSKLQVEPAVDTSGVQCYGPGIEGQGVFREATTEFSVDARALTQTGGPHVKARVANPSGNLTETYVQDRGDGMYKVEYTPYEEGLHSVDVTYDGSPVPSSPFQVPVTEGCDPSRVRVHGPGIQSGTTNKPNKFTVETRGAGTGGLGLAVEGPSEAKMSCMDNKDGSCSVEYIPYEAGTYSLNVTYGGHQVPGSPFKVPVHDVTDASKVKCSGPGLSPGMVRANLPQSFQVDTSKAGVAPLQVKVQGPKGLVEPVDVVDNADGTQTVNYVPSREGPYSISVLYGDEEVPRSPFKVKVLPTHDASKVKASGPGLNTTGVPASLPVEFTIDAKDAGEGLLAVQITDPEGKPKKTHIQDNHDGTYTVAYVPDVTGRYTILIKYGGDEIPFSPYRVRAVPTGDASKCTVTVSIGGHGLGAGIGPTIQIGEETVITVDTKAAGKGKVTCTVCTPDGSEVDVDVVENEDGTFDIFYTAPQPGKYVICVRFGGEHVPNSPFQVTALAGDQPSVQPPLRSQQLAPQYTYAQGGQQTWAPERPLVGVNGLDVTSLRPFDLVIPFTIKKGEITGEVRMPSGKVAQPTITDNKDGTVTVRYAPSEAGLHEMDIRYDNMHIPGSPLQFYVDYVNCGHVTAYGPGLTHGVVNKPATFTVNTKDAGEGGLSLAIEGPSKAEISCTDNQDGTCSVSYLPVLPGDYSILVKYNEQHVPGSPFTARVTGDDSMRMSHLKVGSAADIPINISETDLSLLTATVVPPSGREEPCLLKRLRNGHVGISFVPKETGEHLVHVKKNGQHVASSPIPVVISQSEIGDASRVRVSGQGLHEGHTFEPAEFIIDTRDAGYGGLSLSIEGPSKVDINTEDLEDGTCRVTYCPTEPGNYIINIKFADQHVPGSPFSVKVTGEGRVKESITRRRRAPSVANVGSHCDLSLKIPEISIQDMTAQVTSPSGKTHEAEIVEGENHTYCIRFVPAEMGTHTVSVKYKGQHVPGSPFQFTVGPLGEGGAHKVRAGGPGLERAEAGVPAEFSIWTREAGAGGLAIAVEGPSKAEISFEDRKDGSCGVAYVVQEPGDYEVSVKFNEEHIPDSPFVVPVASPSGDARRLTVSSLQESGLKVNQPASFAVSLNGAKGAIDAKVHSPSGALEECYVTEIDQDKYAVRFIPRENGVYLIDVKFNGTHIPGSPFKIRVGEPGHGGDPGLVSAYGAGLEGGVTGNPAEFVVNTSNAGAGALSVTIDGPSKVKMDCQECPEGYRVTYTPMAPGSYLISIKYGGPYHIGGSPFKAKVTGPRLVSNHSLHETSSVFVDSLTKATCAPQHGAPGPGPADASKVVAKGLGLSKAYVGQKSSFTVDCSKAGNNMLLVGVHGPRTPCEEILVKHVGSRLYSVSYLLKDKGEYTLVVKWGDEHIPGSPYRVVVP
UniProt P35579: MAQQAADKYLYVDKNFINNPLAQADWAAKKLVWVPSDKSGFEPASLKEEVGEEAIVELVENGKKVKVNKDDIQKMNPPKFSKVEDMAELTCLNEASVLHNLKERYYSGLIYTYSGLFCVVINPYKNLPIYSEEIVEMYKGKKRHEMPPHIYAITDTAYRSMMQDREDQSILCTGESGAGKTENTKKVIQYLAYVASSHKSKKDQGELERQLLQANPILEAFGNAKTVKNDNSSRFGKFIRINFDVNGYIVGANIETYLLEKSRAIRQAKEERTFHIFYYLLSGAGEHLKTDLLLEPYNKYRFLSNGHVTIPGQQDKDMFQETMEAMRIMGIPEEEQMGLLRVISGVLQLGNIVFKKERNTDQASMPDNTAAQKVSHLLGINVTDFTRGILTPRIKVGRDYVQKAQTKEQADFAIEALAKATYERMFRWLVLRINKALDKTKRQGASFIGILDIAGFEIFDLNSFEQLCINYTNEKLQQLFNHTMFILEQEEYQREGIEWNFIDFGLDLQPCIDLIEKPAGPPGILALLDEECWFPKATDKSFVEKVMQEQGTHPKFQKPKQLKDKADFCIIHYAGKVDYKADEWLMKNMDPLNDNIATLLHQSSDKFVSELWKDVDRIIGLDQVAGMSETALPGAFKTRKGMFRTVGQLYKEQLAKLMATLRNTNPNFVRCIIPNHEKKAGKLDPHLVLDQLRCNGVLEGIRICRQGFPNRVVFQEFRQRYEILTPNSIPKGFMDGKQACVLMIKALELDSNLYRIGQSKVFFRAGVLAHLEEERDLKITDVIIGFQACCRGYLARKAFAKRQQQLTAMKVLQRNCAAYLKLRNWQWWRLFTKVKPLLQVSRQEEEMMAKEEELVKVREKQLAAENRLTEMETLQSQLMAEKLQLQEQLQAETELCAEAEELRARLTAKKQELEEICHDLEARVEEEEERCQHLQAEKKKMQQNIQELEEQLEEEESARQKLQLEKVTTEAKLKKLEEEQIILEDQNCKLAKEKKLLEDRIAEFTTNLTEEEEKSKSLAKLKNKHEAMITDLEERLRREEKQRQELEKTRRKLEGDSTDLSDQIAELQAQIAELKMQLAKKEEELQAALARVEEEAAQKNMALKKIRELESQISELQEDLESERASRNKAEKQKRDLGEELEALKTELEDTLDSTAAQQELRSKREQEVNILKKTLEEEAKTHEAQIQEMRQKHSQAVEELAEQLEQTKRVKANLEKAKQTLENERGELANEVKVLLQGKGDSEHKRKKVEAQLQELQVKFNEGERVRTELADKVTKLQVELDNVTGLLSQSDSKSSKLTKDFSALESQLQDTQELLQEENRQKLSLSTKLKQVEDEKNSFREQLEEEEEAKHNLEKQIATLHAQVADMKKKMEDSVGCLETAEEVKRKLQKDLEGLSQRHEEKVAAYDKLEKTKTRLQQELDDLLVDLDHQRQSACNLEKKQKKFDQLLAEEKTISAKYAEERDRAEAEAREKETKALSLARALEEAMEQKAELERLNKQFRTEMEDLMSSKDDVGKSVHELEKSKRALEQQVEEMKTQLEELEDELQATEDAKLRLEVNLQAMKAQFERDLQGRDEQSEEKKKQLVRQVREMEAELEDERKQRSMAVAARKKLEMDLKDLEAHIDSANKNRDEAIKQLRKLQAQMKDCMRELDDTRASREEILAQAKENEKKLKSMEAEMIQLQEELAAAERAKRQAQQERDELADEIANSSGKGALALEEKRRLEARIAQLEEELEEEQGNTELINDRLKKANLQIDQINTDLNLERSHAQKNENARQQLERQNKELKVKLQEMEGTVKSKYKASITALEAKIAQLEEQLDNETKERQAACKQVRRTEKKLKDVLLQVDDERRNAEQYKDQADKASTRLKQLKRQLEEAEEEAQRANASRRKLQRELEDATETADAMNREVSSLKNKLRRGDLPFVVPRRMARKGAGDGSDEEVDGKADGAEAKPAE

These are yes or no findings as the source states them, for the method shown. Binding seen in cells or lysates may run through a third protein. A yes stands for co-enrichment or nearness to the bait. Other partners may have been found.

This assay addresses Toll-like receptor 4 (human (endogenous in platelets)) (UniProt O00206). As to the kind of experiment: affinity purification with mass spectrometry; untreated washed human platelet lysate; IP with anti-TLR4 antibody, mouse IgG IP as control; SDS-PAGE, Coomassie; bands present only in the anti-TLR4 IP excised, trypsin digest, nano-LC/MS/MS.

Regarding filamin A (from UniProt P21333 1-2647), the binding result is given as “binds”.
On to “myosin heavy chain-9 (myosin-9) (from UniProt P35579 1-1960)”, for which the binding entry is “binds”.
